Assay results reported in patent US8217035B2, “Pyrimidine derivatives used as PI-3-kinase inhibitors” (Novartis AG, priority 2006, dated 2012).
Some of these results come from one statement about several compounds together.

Tested on: Akt^Ser473 phosphorylation in A2780 xenograft tumors
Assay: In vivo target modulation (PK/PD) in A2780 ovarian cancer xenograft tumors (Biological Method 3)
Set-up: species or system nu/nu mice
From the text: A2780 ovarian cancer cells obtained from George Coukos (Fox Chase Cancer Center, University of Pennsylvania, Philadelphia, Pa.) were maintained in DMEM (Invitrogen, Inc.) supplemented with 10% heat-inactivated fetal bovine serum with 1% glutamine. Cells were propagated as recommended by the Dr. Coukos and colleagues. Female nu/nu mice (8-12 weeks old, 20-25 g, Charles River) were used for all in vivo pharmacology studies. The mice were housed and maintained in accordance with state and federal guidelines for the humane treatment and care of laboratory animals and received food and water ad libitum. Cancer cells were harvested from mid-log phase cultures using trypsin-EDTA (Invitrogen, Inc.). […] Tumor volumes were determined by using StudyDirector software.
For PK/PD dose-dependent studies, tumor-bearing mice were given a single oral dose of compound at different concentrations (10, 30, 60 and 100 mg/kg or vehicle) and tumors were resected at 10 hr or 24 hr after dosing. […] Supernatants were taken after centrifugation of tumor lysates at 300×g for 10 min at 4° C. and the protein concentration in each supernatant was determined by BCA (BioRad). […] The density of the positive band on the X-ray film was scanned and the target modulation for each compound was expressed as percentage inhibition by each compound compared to vehicle treatment. […]

In the case of `Nc1ncc(-c2cc(OC3CCOCC3)nc(N3CCOCC3)n2)c(C(F)(F)F)n1` [Compound 66], the “Duration of >50% inhibition of Akt^Ser473” value is reported as > 10 h.
